In patent US10689327B2, “Prodrug amino acid derivative” (TAISHO PHARMACEUTICALS CO., LTD., priority 2016, dated 2020):
For at least one compound, name, drawing or mass did not settle the structure.

Assay: Stability test in solution (pH 1.2 and pH 6.5)
Type: physicochemical
Settings: 1 hour
Experimental: Test 2: Stability Test in Solution
A test to determine the stability of Inventive Compounds (I-A) or (I) in a hydrochloric acid solution (pH 1.2) and 20 mM phosphate buffer (pH 6.5) was conducted in accordance with the following method.
A compound was dissolved in a hydrochloric acid solution (pH 1.2) containing hydrochloric acid and sodium chloride or a 20 mM phosphate buffer (pH 6.5) containing disodium hydrogenphosphate, sodium dihydrogenphosphate and sodium chloride to prepare a solution with a concentration of about 50 ng/mL (near the saturated concentration when the compound was not dissolved). The solution was incubated at 37° C. for 1 hour and the compound's concentration before and after the incubation was quantified by high-performance liquid chromatography to calculate the percent residue of the compound. Compounds having low solubility were assessed as being not applicable.
The percent residues of representative compounds in the hydrochloric acid solution (pH 1.2) and the 20 mM phosphate buffer (pH 6.5) are shown in the following Table 2.

Question: What does the source list for `CC(C)[C@@H]1CC[C@@H](C)C[C@H]1OC(=O)O[C@H](C)OC(=O)[C@@]1(N)[C@H]2[C@@H](C[C@H]1OCc1cccc(F)c1)[C@]2(F)C(=O)O` [Example 32, (1R,2R,3R,5R,6R)-2-amino-6-fluoro-3-[(3-fluorophenyl)methoxy]-2-({(1R)-1-[({[(1R,2S,5R)-5-methyl-2-(propan-2-yl)cyclohexyl]oxy}carbonyl)oxy]ethoxy}carbonyl)bicyclo[3.1.0]hexane-6-carboxylic acid]?
Answer: Compound's percent residue (%) pH 6.5 (20 mM phosphate buffer pH 6.5, 37° C.): 94%; Compound's percent residue (%) pH 1.2 (hydrochloric acid solution pH 1.2, 37° C.): 96%
